Values of other authors, collected in US20030153081A1, “Viral core protein-cationic lipid-nucleic acid-delivery complexes” (priority 1999, published 2003).
Some entries share one result that the patent states for a list of compounds.

System: non-neuronal cell lines
Details: variety of non-neuronal cell lines; cited from earlier work

Substance	increase in liposome-mediated transfection compared to complexes without pre-condensation
protamine	over 30 fold
poly-L-lysine	over 30 fold
